Experimental data as given in article PMC12639820.
These are yes or no findings as the source states them, for the method shown. Some binding calls cover weakened binding; strength is not graded here.

Target: purified C3d (human), P01024
Experiment: ELISA; C3b (5 ug/ml) or C3d (5 ug/ml) coated on wells; purified biotinylated human FH (6 ug/ml) preincubated in solution with different amounts of total IgG from patient serum (kAb) or NHS; both purified
Conditions: remark: other sources report otherwise

B1: purified biotinylated human factor H, P08603 19-1231 (protein)
chain: EDCNELPPRRNTEILTGSWSDQTYPEGTQAIYKCRPGYRSLGNVIMVCRKGEWVALNPLRKCQKRPCGHPGDTPFGTFTLTGGNVFEYGVKAVYTCNEGYQLLGEINYRECDTDGWTNDIPICEVVKCLPVTAPENGKIVSSAMEPDREYHFGQAVRFVCNSGYKIEGDEEMHCSDDGFWSKEKPKCVEISCKSPDVINGSPISQKIIYKENERFQYKCNMGYEYSERGDAVCTESGWRPLPSCEEKSCDNPYIPNGDYSPLRIKHRTGDEITYQCRNGFYPATRGNTAKCTSTGWIPAPRCTLKPCDYPDIKHGGLYHENMRRPYFPVAVGKYYSYYCDEHFETPSGSYWDHIHCTQDGWSPAVPCLRKCYFPYLENGYNQNYGRKFVQGKSIDVACHPGYALPKAQTTVTCMENGWSPTPRCIRVKTCSKSSIDIENGFISESQYTYALKEKAKYQCKLGYVTADGETSGSITCGKDGWSAQPTCIKSCDIPVFMNARTKNDFTWFKLNDTLDYECHDGYESNTGSTTGSIVCGYNGWSDLPICYERECELPKIDVHLVPDRKKDQYKVGEVLKFSCKPGFTIVGPNSVQCYHFGLSPDLPICKEQVQSCGPPPELLNGNVKEKTKEEYGHSEVVEYYCNPRFLMKGPNKIQCVDGEWTTLPVCIVEESTCGDIPELEHGWAQLSSPPYYYGDSVEFNCSESFTMIGHRSITCIHGVWTQLPQCVAIDKLKKCKSSNLIILEEHLKNKKEFDHNSNIRYRCRGKEGWIHTVCINGRWDPEVNCSMAQIQLCPPPPQIPNSHNMTTTLNYRDGEKVSVLCQENYLIQEGEEITCKDGRWQSIPLCVEKIPCSQPPQIEHGTINSSRSSQESYAHGTKLSYTCEGGFRISEENETTCYMGKWSSPPQCEGLPCKSPPEISHGVVAHMSDSYQYGEEVTYKCFEGFGIDGPAIAKCLGEKWSHPPSCIKTDCLSLPSFENAIPMGEKKDVYKAGEQVTYTCATYYKMDGASNVTCINSRWTGRPTCRDTSCVNPPTVQNAYIVSRQMSKYPSGERVRYQCRSPYEMFGDEEVMCLNGNWTEPPQCKDSTGKCGPPPPIDNGDITSFPLSVYAPASSVEYQCQNLYQLEGNKRITCRNGQWSEPPKCLHPCVISREIMENYNIALRWTAKQKLYSRTGESVEFVCKRGYRLSSRSHTLRTTCWDGKLEYPTCAKR
modifications: here or on the partner: biotin (biotinylated; sites not stated)
Question: For B1, which binding is on record?
Answer: The binding was “binds”.
